Marks after values point to notes of the source that are not given here.

The source of these data is patent US9446087B2, “Anti-resorptive and bone building dietary supplements and methods of use” (priority 2006, dated 2016).

The test system of this assay is ovariectomized (OVX) rat model. Description: In vivo ovariectomized (OVX) rat study - DEXA measurements. The settings on record: OVX rats, 35 days, positive control 0.5 mg/day; vs placebo group. The procedure:
Two different formulas were tested in an in vivo study involving female, […] rats, aged approximately 12-14 weeks, with approximate body weights between 200-250 grams. Formula 2 included varying dosages of pomegranate extract and grape seed extract and a fixed dosage of ipriflavone as reported in Table 18. Three dosages were tested for each formula. The study utilized 8 groups of rats, with 15 rats in each group and lasted approximately 35 days.
Table 18 below indicates the formula given to each of the 8 test groups. The dosages in Table 18 are based on the recommended human dosages and were converted to the appropriate corresponding rat dose using the FDA conversion formula: Human equivalent dose (HED, mg/kg)=rat dose in mg/kg×(rat weight in kg/human weight in kg)^0.33 HED=rat NOAEL×(W-rat/W-human)^(1-b), b=0.67. […]
The effectiveness of the formulas on antiresorption was assessed by outcome measurements that included DEXA scan (to determine bone mineral density), biomechanical measurement (to gather bone strength and functional information), micro-CT measurement (to assess virtual bone quality and functional information), and histomorphology measurement (to assess bone quality and functional information). […] These measurements were determined after 35 days of treatment.

As to `NCCCC(O)(P(=O)(O)O)P(=O)(O)O` [Alendronate], the “Bone Mineral Density (DEXA)” value amounted to 35%^a.
